Measured values reported in article PMC6679365.
These are yes or no findings as the source states them, for the method shown. Binding can be weak; no strength is given.

Biological target: CsFT, yeast two-hybrid fusion (cucumber (Cucumis sativus L.)) (UniProt B9ZYL0)
Assay: two-hybrid; pairwise tests; full-length coding sequences in pGADT7 (prey) or pGBKT7 (bait), yeast strain AH109, Matchmaker GAL4 Two-Hybrid System 3

- binding: binds
Substance: CsNOT2a (cucumber homolog of Negative on TATA less2), yeast two-hybrid fusion (from UniProt A0A0A0KG20)
